{"source": "paper PMC3754942", "about": "“Selection of Specific Protein Binders for Pre-Defined Targets from an Optimized Library of Artificial Helicoidal Repeat Proteins (alphaRep)” (PLoS ONE, 2013)", "binders": {"B1": {"name": "αRep binder bEbs1–6 (designed binder)", "chain": "MRGSHHHHHHTDPEKVEMYIKNLQDDSLLVRFDAAVALGKIGDERAVEPLIKALKDEDWLVRFSAAWALGEIGDERAVEPLIKALKDEDSAVRTAAALALGKIGDERAVEPLIKALKDEDASVREEAARALGKIGDERAVEPLIKALKDEDAAVRYGAAAALGEIGDERAVEPLIKALKDEDRQVRSAAADALGEIGDERAVEPLIKALKDEDEFVRFSAADALGEIGDERAVEPLIKALKDEDASVRFSAAEALGEIGGERVRAAMEKLAETGTGFARKVAVNYLETHKSLIS"}}, "key": {"[1]": {"biological_target": "T1, Ebs1 N-terminal domain (residues 1–610) (S. cerevisiae, UniProt Q03466 1-610)", "T1 construct": "Ebs1, Saccharomyces cerevisiae S288C, N-terminal domain, residues 1-610; source: E. coli BL21 DE3 (pET21-a), purified (Ni-NTA, SEC)", "T1 sequence (looked up)": "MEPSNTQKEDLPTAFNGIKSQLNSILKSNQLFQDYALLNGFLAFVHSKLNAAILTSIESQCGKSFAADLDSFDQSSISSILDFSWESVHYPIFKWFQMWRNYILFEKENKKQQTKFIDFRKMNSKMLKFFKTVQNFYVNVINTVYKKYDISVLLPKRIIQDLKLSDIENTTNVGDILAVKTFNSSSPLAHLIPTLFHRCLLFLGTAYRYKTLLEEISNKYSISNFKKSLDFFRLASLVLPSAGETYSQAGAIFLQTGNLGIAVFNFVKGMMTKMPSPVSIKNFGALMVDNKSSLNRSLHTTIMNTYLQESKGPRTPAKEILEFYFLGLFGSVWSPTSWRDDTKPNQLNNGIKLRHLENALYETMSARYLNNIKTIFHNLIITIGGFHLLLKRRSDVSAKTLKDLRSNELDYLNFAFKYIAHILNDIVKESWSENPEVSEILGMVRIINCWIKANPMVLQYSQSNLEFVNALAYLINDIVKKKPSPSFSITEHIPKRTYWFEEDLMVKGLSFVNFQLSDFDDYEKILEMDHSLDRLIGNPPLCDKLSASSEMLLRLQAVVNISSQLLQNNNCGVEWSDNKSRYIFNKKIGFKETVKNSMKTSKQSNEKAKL", "experiment": "SEC-MALS; SEC-MALLS, data not shown", "details": "both partners purified"}, "[2]": {"biological_target": "the molecule itself", "experiment": "SEC-MALS; SEC-MALLS, data not shown"}, "[3]": {"biological_target": "T1, Ebs1 N-terminal domain (residues 1–610)", "experiment": "ITC; ITC 200 microcalorimeter, PBS, 2 μL injections of titrant (200 to 350 μM) into 20 to 35 μM of the partner in the cell, one-binding-site model, monomer concentrations; apparent Kd (may include dissociation of homodimers)", "details": "both partners purified"}, "[4]": {"biological_target": "T1, Ebs1 N-terminal domain (residues 1–610)", "experiment": "ITC; ITC 200 microcalorimeter, PBS, 2 μL injections of titrant (200 to 350 μM) into 20 to 35 μM of the partner in the cell, one-binding-site model, monomer concentrations; apparent Kd (may include dissociation of homodimers)", "details": "both partners purified", "remark": "listed apart in the source"}}}
{"binder": "B1", "values": [{"measurement": "stoichiometry N", "setting": "[1]", "result": 1}, {"measurement": "stoichiometry N", "setting": "[2]", "result": 2}, {"measurement": "stoichiometry N", "setting": "[3]", "result": "1.5 ± 0.1"}, {"measurement": "Kd", "setting": "[4]", "result": "12.3 ± 12", "unit": "nM"}]}
